This note sets out measurements from article PMC5472039.

Protein sequences, listed by entry. Tags and fused reporters are not part of them. Residues count along the entry.
UniProt P05532, residues 25-979: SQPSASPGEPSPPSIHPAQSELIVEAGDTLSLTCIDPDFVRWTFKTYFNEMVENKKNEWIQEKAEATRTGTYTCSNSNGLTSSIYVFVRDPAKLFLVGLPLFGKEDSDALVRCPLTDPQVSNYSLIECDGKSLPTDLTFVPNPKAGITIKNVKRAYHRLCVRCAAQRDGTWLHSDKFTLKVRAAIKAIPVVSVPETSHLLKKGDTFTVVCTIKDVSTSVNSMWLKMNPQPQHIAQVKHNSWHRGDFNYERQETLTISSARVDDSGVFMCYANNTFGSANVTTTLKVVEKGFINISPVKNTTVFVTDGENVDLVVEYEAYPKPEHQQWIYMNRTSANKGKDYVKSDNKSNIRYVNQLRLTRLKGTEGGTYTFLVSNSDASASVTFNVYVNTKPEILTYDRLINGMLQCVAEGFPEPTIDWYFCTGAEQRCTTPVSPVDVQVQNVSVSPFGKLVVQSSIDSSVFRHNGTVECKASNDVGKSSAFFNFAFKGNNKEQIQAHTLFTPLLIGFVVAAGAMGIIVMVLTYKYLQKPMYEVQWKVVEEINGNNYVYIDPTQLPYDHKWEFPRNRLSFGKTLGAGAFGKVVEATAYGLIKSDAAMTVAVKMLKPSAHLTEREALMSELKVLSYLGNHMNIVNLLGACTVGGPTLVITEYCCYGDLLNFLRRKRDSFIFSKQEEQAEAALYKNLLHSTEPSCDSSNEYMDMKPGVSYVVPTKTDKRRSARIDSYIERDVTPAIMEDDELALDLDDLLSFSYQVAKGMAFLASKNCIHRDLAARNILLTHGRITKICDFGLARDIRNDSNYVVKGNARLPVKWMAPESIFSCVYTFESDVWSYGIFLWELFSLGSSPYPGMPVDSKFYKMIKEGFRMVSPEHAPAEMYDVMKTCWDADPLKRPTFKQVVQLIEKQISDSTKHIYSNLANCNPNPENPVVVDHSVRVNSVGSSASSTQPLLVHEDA

These are yes or no findings as the source states them, for the method shown. Binding seen in cells or lysates may run through a third protein. Some binding calls cover weakened binding; strength is not graded here.

Assay [1] concerns the target T1, TGFβ-activated kinase 1 (TAK1) (mouse (endogenous in primary aortic SMC)) (UniProt Q62073).
T1 sequence: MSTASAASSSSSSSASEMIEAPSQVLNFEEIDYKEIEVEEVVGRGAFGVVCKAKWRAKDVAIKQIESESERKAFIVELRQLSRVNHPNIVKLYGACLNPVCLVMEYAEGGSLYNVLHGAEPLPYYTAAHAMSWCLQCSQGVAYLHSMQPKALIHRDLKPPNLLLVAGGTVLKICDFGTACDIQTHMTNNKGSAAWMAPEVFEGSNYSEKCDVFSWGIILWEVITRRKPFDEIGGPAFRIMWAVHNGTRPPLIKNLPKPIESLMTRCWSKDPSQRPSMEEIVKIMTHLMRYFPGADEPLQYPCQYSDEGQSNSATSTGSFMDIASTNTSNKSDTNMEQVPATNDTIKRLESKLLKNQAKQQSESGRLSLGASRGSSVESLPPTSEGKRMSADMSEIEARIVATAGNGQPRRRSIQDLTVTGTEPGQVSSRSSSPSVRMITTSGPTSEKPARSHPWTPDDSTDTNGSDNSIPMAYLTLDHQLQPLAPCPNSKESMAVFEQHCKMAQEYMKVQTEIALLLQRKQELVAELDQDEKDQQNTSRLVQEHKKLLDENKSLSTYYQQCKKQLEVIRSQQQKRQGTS
Nature of the assay: co-IP; ~200 µg lysate (RIPA buffer) of primary mouse aortic SMC incubated at 4 °C for 4 h with 1 µg anti-c-Kit or anti-TAK1 antibody and Protein A/G PLUS-Agarose; beads washed with cold RIPA buffer; Western blot. A general note: A western blot detects proteins with antibodies after separation by electrophoresis.

Assay [2] addresses c-Kit receptor tyrosine kinase (mouse (endogenous in primary aortic SMC)) (UniProt P05532). The description is as above.

B1: Nemo-like kinase (NLK) (enzyme, UniProt O54949 1-527)
chain: MSLCGTRANAKMMAAYNGGTSAAAAGHHHHHHHHLPHLPPPHLHHHHHPQHHLHPGSAAAVHPVQQHTSSAAAAAAAAAAAAAMLNPGQQQPYFPSPAPGQAPGPAAAAPAQVQAAAAATVKAHHHQHSHHPQQQLDIEPDRPIGYGAFGVVWSVTDPRDGKRVALKKMPNVFQNLVSCKRVFRELKMLCFFKHDNVLSALDILQPPHIDYFEEIYVVTELMQSDLHKIIVSPQPLSSDHVKVFLYQILRGLKYLHSAGILHRDIKPGNLLVNSNCVLKICDFGLARVEELDESRHMTQEVVTQYYRAPEILMGSRHYSNAIDIWSVGCIFAELLGRRILFQAQSPIQQLDLITDLLGTPSLEAMRTACEGAKAHILRGPHKQPSLPVLYTLSSQATHEAVHLLCRMLVFDPSKRISAKDALAHPYLDEGRLRYHTCMCKCCFSTSTGRVYTSDFEPVTNPKFDDTFEKNLSSVRQVKEIIHQFILEQQKGNRVPLCINPQSAAFKSFISSTVAQPSEMPPSPLVWE
Turning to B1, the binding entry in assay [1] and in assay [2] was “binds” each time.

B2: TGFβ-activated kinase 1 (TAK1) (enzyme, UniProt Q62073 1-579)
chain: MSTASAASSSSSSSASEMIEAPSQVLNFEEIDYKEIEVEEVVGRGAFGVVCKAKWRAKDVAIKQIESESERKAFIVELRQLSRVNHPNIVKLYGACLNPVCLVMEYAEGGSLYNVLHGAEPLPYYTAAHAMSWCLQCSQGVAYLHSMQPKALIHRDLKPPNLLLVAGGTVLKICDFGTACDIQTHMTNNKGSAAWMAPEVFEGSNYSEKCDVFSWGIILWEVITRRKPFDEIGGPAFRIMWAVHNGTRPPLIKNLPKPIESLMTRCWSKDPSQRPSMEEIVKIMTHLMRYFPGADEPLQYPCQYSDEGQSNSATSTGSFMDIASTNTSNKSDTNMEQVPATNDTIKRLESKLLKNQAKQQSESGRLSLGASRGSSVESLPPTSEGKRMSADMSEIEARIVATAGNGQPRRRSIQDLTVTGTEPGQVSSRSSSPSVRMITTSGPTSEKPARSHPWTPDDSTDTNGSDNSIPMAYLTLDHQLQPLAPCPNSKESMAVFEQHCKMAQEYMKVQTEIALLLQRKQELVAELDQDEKDQQNTSRLVQEHKKLLDENKSLSTYYQQCKKQLEVIRSQQQKRQGTS
As for B2, the binding entry in assay [2] was “binds”.
